Experimental data reported in PubChem BioAssay AID602346 (Broad Institute, 2012).
About 1,200 (0.35%) of roughly 340,000 compounds were called active. The shares of active, inactive and inconclusive entries below differ from those in the screen. Rule as the data show it: active = inhibition above about 50% (passing the limit was not always enough); inconclusive = no clear call, values can overlap the other calls; inactive = below about 31%.

experiment: blockers of Vif multimerization in cells – imaging, HEK293T, single point, primary screen (AID 602346); conditions: Vif self-association by quenched fluorescence, 24 h, at 7.49 µM, hits give high values

| SMILES | inhibition |
| --- | --- |
| O=C1c2ccccc2C(=O)N1CCCSc1nc2ccccc2o1 | inconclusive: 17.6% |
| CN(C)S(=O)(=O)c1cccc(NC(=O)COC(=O)c2cccn2C)c1 | inconclusive: 33% |
| CC(=O)c1cccc(NC(=S)NC(=O)c2ccccc2C)c1 | inactive: -4% |
| CC(C)N=C1CCCC1C(=S)SSC(=S)C1CCCC1=NC(C)C (centres undefined) | inactive: 0.152% |
| CC(C)NCCOc1cccc(Br)c1 | active: 55.9% |
| COc1ccc(-n2c(CCC(=O)O)ccc2-c2ccccc2)cc1 | inactive: 8.15% |
| CCOC(=O)c1c(C)[nH]c(C)c1S(=O)(=O)N(C)CC(=O)Nc1ccccc1OC | inconclusive: 22.7% |
| CC1(C)CC(=O)c2sc(NS(=O)(=O)c3ccc([N+](=O)[O-])cc3)nc2C1 | inactive: -14.5% |
| COC(=O)c1ccc2nc(NC(=O)CSCC(=O)OCC(=O)c3ccccc3)sc2c1 | inactive: -10.7% |
| CCN1CCN(C(=O)c2cc(-c3ccco3)nc3ccccc23)CC1 | inconclusive: 23.4% |
| O=C(NCC1COc2ccccc2O1)c1ccccc1 (centres undefined) | inactive: -0.573% |
| NC(CCc1ccccc1)c1csc(Nc2ccc(C(=O)c3ccccc3)cc2)n1 (centres undefined) | active: 56.8% |
| Cc1ccc(CNC(=O)c2ccc(N3CCC4(CC3)CC(c3ccccc3)=NO4)c(N)c2)cc1 | inconclusive: 41.6% |
| O=Cc1ccc(O)cc1O | inconclusive: 29% |
| Cc1c(C(=O)N/N=C/c2ccccn2)nnn1-c1nonc1N | inactive: 12.6% |
| C=C(C)C(=O)Nc1cccc(C(C)=O)c1 | inconclusive: 40.7% |
| Cc1cc(C)n(CC(=O)c2cccc([N+](=O)[O-])c2)n1 | inactive: -2.68% |
| O=S(=O)(c1cccc(-c2nnco2)c1)N1CCCC1 | inconclusive: 33.5% |
| COc1ccc2c(ccc[n+]2[O-])c1 | inactive: 0.828% |
| Cc1ccc(-c2cc(-c3ccc(F)cc3)n[nH]2)c(O)c1 | inactive: -13.9% |
| O=C1CCCC2=C1C(c1ccncc1)n1c(nc3ccccc31)N2 (centres undefined) | inconclusive: 44.8% |
| COC(=O)c1ccc(NC(=O)Nc2ccc(F)cc2)cc1 | inconclusive: 48.4% |
| O=C(NCc1ccccc1OC(F)(F)F)C1CCC(=O)N(CCc2ccccn2)C1 (centres undefined) | inconclusive: 33.4% |
| COc1ccc(-c2nn(-c3ccccc3)cc2C(=O)N(C)CC(=O)Nc2ccccc2Br)cc1 | inconclusive: 39.9% |

| SMILES | inhibition |
| --- | --- |
| COc1cccc(NC(=O)N2CCN(c3nc(-c4cccc(OC)c4)cs3)CC2)c1 | inactive: 2.81% |
| c1ccc(-n2c(-c3ccco3)nnc2-c2ccco2)cc1 | inconclusive: 38% |
| Cc1ccc(NC(=O)c2cnccn2)c(C)c1 | inconclusive: 36.8% |
| CCC(=O)n1nc(-c2ccc(Cl)cc2)nc1SC | active: 53% |
| CSCCC(C(=O)OC1CCOC1=O)N1C(=O)c2ccccc2C1=O (centres undefined) | inconclusive: 31.2% |
| N#Cc1c(NC(=O)CSc2nnc(-c3ccccc3)o2)sc2c1CCCC2 | inactive: -2.08% |
| Cc1cc(=O)n2nc(N3CCC(C(=O)NCc4ccccc4)CC3)sc2n1 | inconclusive: 38.9% |
| Cc1ccc(C(C(=O)NCc2ccc(F)cc2)N(Cc2ccco2)C(=O)c2snc(C(N)=O)c2N)o1 (centres undefined) | active: 57.8% |
| O=C(Nc1cnccn1)Nc1ccccc1Cl | active: 51.4% |
| COc1c2ccoc2nc2c(OC)c(OC[C@@H](O)C(C)(C)O)ccc12 | active: 56.8% |
| CCCOC(=O)CSC1=C(C#N)C(c2ccc3c(c2)OCO3)CC(=O)N1 (centres undefined) | inconclusive: 34.9% |
| O=C(CN1CCOCC1)Nc1c(C(=O)C2CC2)oc2ccccc12 | inconclusive: 43.6% |
| O=C(O)CN1C(=O)C2(OCCO2)c2cc(Br)ccc21 | inconclusive: 24.7% |
| Cc1ccc(C)c(N(CC(=O)N2CCCCCC2)S(C)(=O)=O)c1 | inconclusive: 24.9% |
| CC(=O)Nc1ccc(C(=O)N/C(=C\c2ccccc2)C(=O)Nc2cccc(C(=O)O)c2)cc1 | inconclusive: 29.3% |
| O=C(c1cc(-c2cccs2)on1)N1CCOCC1 | inconclusive: 40.4% |
| COc1cc(C(=O)Oc2ccccc2/C=N/NC(=O)c2ccc(C)c(Cl)c2)cc(OC)c1OC | inactive: 3.5% |
| O=C(NCc1ccccc1)c1ccc(/C=N/O)nc1 | inconclusive: 39.9% |
| O=C(NC1CCCCCC1)c1ccc(=O)n(Cc2ccccc2)n1 | inconclusive: 36.4% |
| O=C(O)c1ccccc1C(=O)Nc1ccc(Br)c(C(F)(F)F)c1 | inconclusive: 45.2% |
| COc1ccc(OC)c(C(=O)c2coc3ccc(OC)cc23)c1 | inconclusive: 35.3% |
| CCOc1ccccc1NC(=O)Nc1ccc2c(c1)CCC2 | inactive: 7.39% |
| COC(=O)c1cc(NC(=O)CN(c2ccccc2OC)S(=O)(=O)c2ccccc2)ccc1Cl | inconclusive: 27.8% |
| O=C(N/N=C/c1ccccc1Cl)c1ccc(F)cc1 | inconclusive: 32.7% |

| SMILES | inhibition |
| --- | --- |
| c1ccc(-c2nnc(-c3ccccc3)nn2)cc1 | inactive: -0.184% |
| CCCN1CCN(CC(=O)Nc2nnc(C)s2)CC1 | inconclusive: 35.3% |
| O=S1(=O)C[C@@H](N2CCN(c3ccccn3)CC2)[C@H](COCc2ccccc2)N1 | inconclusive: 31.6% |
| CCN(CC(O)CON=C1c2ccccc2-c2ccccc21)S(=O)(=O)c1ccc(Cl)cc1 (centres undefined) | inactive: -0.506% |
| O=CNC1c2ccccc2CCc2ccccc21 | active: 61.3% |
| COc1ccc(CCN(C)C(=O)CCNS(=O)(=O)c2ccccc2C(F)(F)F)cc1OC | inconclusive: 32.5% |
| O=C(NNC(=O)C1CCN(Cc2cccc(F)c2)CC1)c1cccs1 | inconclusive: 21.4% |
| Cc1cc(=O)[nH]c2ccc(S(=O)(=O)Nc3ccc(O)cc3)cc12 | inconclusive: 35.5% |
| COc1cccc(/C=N/NC(=O)c2cnccn2)c1 | inconclusive: 19.8% |
| CSc1nc(Nc2ccc(Cl)cc2)c(C#N)c(=O)[nH]1 | inconclusive: 45.9% |
| COc1ccc(-c2ccc(C#N)c(SCC(=O)NC3CC3)n2)cc1OC | active: 78.5% |
| CCOC(=O)C1=CCC(c2ccco2)N(S(=O)(=O)c2ccc(C)cc2)C1 (centres undefined) | inconclusive: 15.9% |
| COc1cccc(C(=O)NNc2nc(C)cc(C)n2)c1 | inactive: -3.78% |
| Cc1cc(C)n(/C(=C\N(C)C)C(=O)c2cccc([N+](=O)[O-])c2)n1 | inactive: -14.7% |
| CC1(S(=O)(=O)O)CC(=O)c2ccccc2C1=O (centres undefined) | active: 174% |
| O=C(Nn1cnnc1)c1ccc(Cl)c(Cl)c1 | inconclusive: 30.1% |
| Cn1cccc1C(=O)OCC(=O)NC(=O)c1ccc(Cl)cc1 | inconclusive: 48.1% |
| COc1cc(N2CCCC2)c(OC)cc1/C=C(/C#N)c1ccc(F)cc1 | active: 63.1% |
| O=C(Oc1ccc2cccc(OC(=O)N3CCOCC3)c2c1)N1CCOCC1 | inconclusive: 27.2% |
| Nc1ncnc2c1ncn2[C@@H]1O[C@H](CO)C[C@H]1O | active: 55.6% |
| CC[C@@H]1Cc2cc(O)ccc2C2=C1c1ccc(O)cc1C[C@H]2CC | active: 85.1% |
| Cc1ccsc1C(=O)OCC(=O)c1ccc[nH]1 | inactive: 13.3% |
| CC1CCCC(NC(=O)CCN2C(=O)COc3ccccc32)C1C (centres undefined) | active: 50.2% |
| Cc1ccc(N2CC(C(=O)NCc3n[nH]c(=O)c4ccccc34)CC2=O)cc1C (centres undefined) | inconclusive: 24.1% |

Some of these compounds in order of formula weight, low to high.

| SMILES | inhibition |
| --- | --- |
| O=C(N/N=C/c1ccccc1Cl)c1ccc(F)cc1 | inconclusive: 32.7% |
| CSCCC(C(=O)OC1CCOC1=O)N1C(=O)c2ccccc2C1=O (centres undefined) | inconclusive: 31.2% |
| O=C(O)c1ccccc1C(=O)Nc1ccc(Br)c(C(F)(F)F)c1 | inconclusive: 45.2% |
| COc1cc(C(=O)Oc2ccccc2/C=N/NC(=O)c2ccc(C)c(Cl)c2)cc(OC)c1OC | inactive: 3.5% |

(listing goes on)

| SMILES | inhibition |
| --- | --- |
| Cc1ccc(NC(=O)c2ccc(S(=O)(=O)N3CCOCC3)cc2)cc1 | inconclusive: 45.3% |
| Oc1cccc(CCc2ccccn2)c1 | inconclusive: 38.5% |
| c1ccc2[nH]c(CSc3nc4ccccc4s3)nc2c1 | inconclusive: 32.1% |
| Cc1ccc2cc(CN(C(=O)c3ccco3)c3ccccc3C)c(=O)[nH]c2c1 | inconclusive: 35.5% |
| COc1ccccc1N1C(=O)CCC1(C#N)c1ccccc1 (centres undefined) | active: 68.6% |
| Cc1nc2sccn2c(=O)c1Cl | inactive: 10.9% |
| CC(=O)Nc1ccc(NC(=O)c2nc(S(=O)(=O)Cc3ccccc3)ncc2Cl)cc1 | inactive: -23.5% |
| Cc1cccc(CN2CCC(Oc3ccc(C(=O)N4CCCC4)cc3)CC2)n1 | inactive: 14.7% |
| Cc1n[nH]c(C)c1S(=O)(=O)N(C)Cc1ccco1 | inconclusive: 39.4% |
| CC1CCCCC1NC(=O)COC(=O)c1ccc2c(c1)OCCO2 (centres undefined) | inconclusive: 48.8% |
| O=[N+]([O-])c1ccc(Cl)cc1Sc1nc2ccccc2o1 | inconclusive: 34.2% |
| Cc1cccc(OCC(=O)N/N=C\C=C\c2ccc3c(c2)OCO3)c1C | inconclusive: 44% |
| O=C(NNC(=O)c1cccc(C(F)(F)F)c1)c1ccc(-n2cnnn2)cc1 | inactive: 22.8% |
| COc1ccc2nc(NC(=O)c3cccs3)sc2c1 | inactive: 21.6% |
| Cc1cc(NC(=O)CSc2nc3c([nH]c4ccccc43)c(=O)n2-c2cccc(C(F)(F)F)c2)no1 | active: 51.3% |
| COCCn1c(SCC(=O)NC2CCCCC2C)nnc1-c1ccncc1 (centres undefined) | inconclusive: 24.9% |
| CC(C)(C)NC(=O)CSC(=Nc1cccc(F)c1)NC#N | inconclusive: 39.9% |
| O=C(CC1SC2=NCCN2C1=O)Nc1ccc(Br)cc1 (centres undefined) | active: 53.3% |
| O=C(NCc1ccccn1)c1ccc(Cn2c(=S)[nH]c3ccc(Br)cc3c2=O)cc1 | inconclusive: 49.8% |
| O=C(/C=C\c1ccco1)Nc1cc([N+](=O)[O-])ccc1F | active: 64.2% |
| C[C@H](CO)N1C[C@H](C)[C@H](CN(C)S(=O)(=O)c2cn(C)cn2)Oc2ccc(NC(=O)Nc3ccc(C(F)(F)F)cc3)cc2CC1=O | inactive: 5.3% |
| COc1cccc(C(=O)NCC2(c3ccc(OC)c(OC)c3)CCCC2)c1 | inconclusive: 26.9% |
